No constants are given. Whether binding was seen depends on the method and setting. In cells and extracts the contact can be indirect. Some binding calls cover weakened binding; strength is not graded here.
Molecular target: p62 (endogenous, granulosa cells) (mouse (endogenous in primary GCs)) (UniProt Q64337)
Assay: co-IP; insoluble fractions of GCs with anti-p62 and anti-SKP2 antibodies; protein-A agarose beads, 4 °C; GCs (WT, si-SKP2) treated with or without miR-1246 enriched-EVs for 24 h

Protein sequences, listed by entry. Tags and fused reporters are not part of them.
UniProt Q9Z0Z3: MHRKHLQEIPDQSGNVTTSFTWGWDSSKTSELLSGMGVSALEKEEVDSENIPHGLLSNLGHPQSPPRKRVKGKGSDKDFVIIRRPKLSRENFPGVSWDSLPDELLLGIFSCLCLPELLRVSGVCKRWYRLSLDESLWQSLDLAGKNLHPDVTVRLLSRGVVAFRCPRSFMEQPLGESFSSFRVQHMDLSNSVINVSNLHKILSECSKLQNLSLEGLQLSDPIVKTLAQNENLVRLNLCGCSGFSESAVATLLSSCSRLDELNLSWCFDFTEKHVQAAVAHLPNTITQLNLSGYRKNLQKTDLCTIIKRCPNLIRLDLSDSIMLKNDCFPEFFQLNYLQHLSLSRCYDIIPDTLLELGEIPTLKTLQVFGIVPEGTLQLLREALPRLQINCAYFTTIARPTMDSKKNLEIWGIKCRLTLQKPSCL

binding: binds
Substance: SKP2 (endogenous, granulosa cells) (from UniProt Q9Z0Z3 1-424)

Source: PMC11884595
